# Results from patent publication US20170189504A1, “NOVEL PEPTIDES AND COMBINATION OF PEPTIDES FOR USE IN IMMUNOTHERAPY AGAINST VARIOUS CANCERS” (immatics biotechnologies GmbH, priority 2015, published 2017).
# For some assays here: For expression read-outs the peptide stands for its source gene, whose mRNA was measured; the gene is not named for every peptide.
# How the values were obtained:
# HLA-A*02 = assay: Identification and relative LC-MS quantitation of HLA-A*02-presented tumor-associated peptides on tissue samples (presentation profiles, Tables 13A, 13B, 15, FIG. 1); parameters: species or system human; key to Presentation score NHL / Presentation score CLL / Presentation score BRCA / Presentation score AML / Presentation score GB / Presentation score NSCLC / Presentation score GBC_CCC / Presentation score UEC / Presentation score MEL / Presentation score OSCAR / Presentation score GC / Presentation score UBC / Presentation score OC / Presentation score RCC / Presentation score CRC / Presentation score PCA / Presentation score HCC / Presentation score PC / Presentation score SCLC: specifically presented on tumors (++++); very highly over-presented on tumors compared to a panel of normal tissues (+++); highly over-presented on tumors compared to a panel of normal tissues (++); over-presented on tumors compared to a panel of normal tissues (+); conditions: for Peptide Presentation on cancer entities: HLA-A*02-binding tumor-associated peptides
# source genes (mRNA) [1] = assay: Gene and exon expression of source genes, TCGA tumor samples compared with normal tissue samples (Lonsdale, 2013) (Table 17); parameters: species or system human; conditions: for Over-expression category of source gene (target coverage), BRCA: BRCA = Breast cancer (N = 1104), tumors more than 2-fold above highest 75% percentile of normal tissues; for Over-expression category of source gene (target coverage), KICH: KICH = Kidney chromophobe (N = 66); for Over-expression category of source gene (target coverage), KIRC: KIRC = Clear cell kidney carcinoma (N = 534); for Over-expression category of source gene (target coverage), LUAD: LUAD = Lung adenocarcinoma (N = 517); for Over-expression category of source gene (target coverage), PRAD: PRAD = Prostate adenocarcinoma (N = 498)
# source genes (mRNA) [2] = assay: Expression profiling of source genes by in-house RNASeq of tumor and normal tissues (Table 18, FIG. 2); parameters: species or system human; key: very highly over-expressed in tumors compared to a panel of normal tissues (+++); highly over-expressed in tumors compared to a panel of normal tissues (++); over-expressed in tumors compared to a panel of normal tissues (+); conditions: source gene of peptide
# [3] = Table 13A, cancer entities on which the peptide was found presented
substance,measurement,setting,value
138: peptide found in PRKDC (gene looked up) (ALLAKILQI; listed as Homo sapiens) [compound 138],Presentation score AML,"HLA-A*02; HLA-A*02 peptides, acute myeloid leukemia (N = 18) vs panel of normal tissues (N = 262)",+++
same,Presentation score BRCA,"HLA-A*02; HLA-A*02 peptides, breast cancer (N = 17) vs panel of normal tissues (N = 262)",+
same,Presentation score CLL,"HLA-A*02; HLA-A*02 peptides, chronic lymphocytic leukemia (N = 17) vs panel of normal tissues (N = 262)",+++
same,Presentation score CRC,"HLA-A*02; HLA-A*02 peptides, colorectal cancer (N = 28) vs panel of normal tissues (N = 262)",++
same,Presentation score GC,"HLA-A*02; HLA-A*02 peptides, gastric cancer (N = 29) vs panel of normal tissues (N = 262)",+++
same,Presentation score MEL,"HLA-A*02; HLA-A*02 peptides, melanoma (N = 7) vs panel of normal tissues (N = 262)",++
same,Presentation score NHL,"HLA-A*02; HLA-A*02 peptides, non-Hodgkin lymphoma (N = 18) vs panel of normal tissues (N = 262)",+
same,Presentation score NSCLC,"HLA-A*02; HLA-A*02 peptides, non-small cell lung cancer (N = 90) vs panel of normal tissues (N = 262)",+
same,Presentation score OC,"HLA-A*02; HLA-A*02 peptides, ovarian cancer (N = 20) vs panel of normal tissues (N = 262)",+
same,Presentation score RCC,"HLA-A*02; HLA-A*02 peptides, renal cell carcinoma (N = 20) vs panel of normal tissues (N = 262)",++
same,Presentation score UBC,"HLA-A*02; HLA-A*02 peptides, urinary bladder cancer (N = 16) vs panel of normal tissues (N = 262)",+
same,Peptide Presentation on cancer entities,HLA-A*02; [3],"GB, GC, NSCLC, HCC, PCA, CLL, OSCAR, OC, SCLC, UBC, BRCA, GBC_CCC, MEL, RCC, CRC, AML, NHL"
same,Peptide Presentation on cancer entities,"HLA-A*02; Table 13B, presentation on additional cancer entities",HNSCC
same,"Over-expression category of source gene (target coverage), BLCA","source genes (mRNA) [1]; BLCA = Bladder urothelial carcinoma (N = 408), same cutoff","B (>= 20% of tumors above the cutoff, but <50%)"
same,"Over-expression category of source gene (target coverage), BRCA",source genes (mRNA) [1],A (>=50% of tumors above the cutoff)
same,"Over-expression category of source gene (target coverage), CHOL","source genes (mRNA) [1]; CHOL = Cholangiocarcinoma (N = 36), same cutoff","C (>=5% of tumors above the cutoff, but <20%)"
same,"Over-expression category of source gene (target coverage), COAD","source genes (mRNA) [1]; COAD = Colon and rectal adenocarcinoma (N = 462), same cutoff","B (>= 20% of tumors above the cutoff, but <50%)"
same,"Over-expression category of source gene (target coverage), DLBC","source genes (mRNA) [1]; DLBC = Lymphoid neoplasm diffuse large B-cell lymphoma (N = 48), same cutoff","C (>=5% of tumors above the cutoff, but <20%)"
same,"Over-expression category of source gene (target coverage), ESCA","source genes (mRNA) [1]; ESCA = Esophageal cancer (N = 185), same cutoff",A (>=50% of tumors above the cutoff)
same,"Over-expression category of source gene (target coverage), GBM","source genes (mRNA) [1]; GBM = Glioblastoma multiforme (N = 169), same cutoff","C (>=5% of tumors above the cutoff, but <20%)"
same,"Over-expression category of source gene (target coverage), KICH",source genes (mRNA) [1]; same cutoff,"C (>=5% of tumors above the cutoff, but <20%)"
same,"Over-expression category of source gene (target coverage), KIRC",source genes (mRNA) [1]; same cutoff,"C (>=5% of tumors above the cutoff, but <20%)"
same,"Over-expression category of source gene (target coverage), KIRP","source genes (mRNA) [1]; KIRP = Papillary kidney carcinoma (N = 291), same cutoff","C (>=5% of tumors above the cutoff, but <20%)"
same,"Over-expression category of source gene (target coverage), LAML","source genes (mRNA) [1]; LAML = Acute Myeloid Leukemia (N = 173), same cutoff",A (>=50% of tumors above the cutoff)
same,"Over-expression category of source gene (target coverage), LGG","source genes (mRNA) [1]; LGG = Lower grade glioma (N = 534), same cutoff","B (>= 20% of tumors above the cutoff, but <50%)"
same,"Over-expression category of source gene (target coverage), LUAD",source genes (mRNA) [1]; same cutoff,"B (>= 20% of tumors above the cutoff, but <50%)"
same,"Over-expression category of source gene (target coverage), LUSC","source genes (mRNA) [1]; LUSC = Lung squamous cell carcinoma (N = 503), same cutoff",A (>=50% of tumors above the cutoff)
same,"Over-expression category of source gene (target coverage), OV","source genes (mRNA) [1]; OV = Ovarian serous cystadenocarcinoma (N = 309), same cutoff","C (>=5% of tumors above the cutoff, but <20%)"
same,"Over-expression category of source gene (target coverage), PAAD","source genes (mRNA) [1]; PAAD = Pancreatic ductal adenocarcinoma (N = 179), same cutoff","C (>=5% of tumors above the cutoff, but <20%)"
same,"Over-expression category of source gene (target coverage), PRAD",source genes (mRNA) [1]; same cutoff,"C (>=5% of tumors above the cutoff, but <20%)"
same,"Over-expression category of source gene (target coverage), READ","source genes (mRNA) [1]; READ = Colon and rectal adenocarcinoma (N = 167), same cutoff","B (>= 20% of tumors above the cutoff, but <50%)"
same,"Over-expression category of source gene (target coverage), SKCM","source genes (mRNA) [1]; SKCM = Skin cutaneous melanoma (N = 473), same cutoff",A (>=50% of tumors above the cutoff)
same,"Over-expression category of source gene (target coverage), STAD","source genes (mRNA) [1]; STAD = Stomach adenocarcinoma (N = 415), same cutoff",A (>=50% of tumors above the cutoff)
same,"Over-expression category of source gene (target coverage), UCEC","source genes (mRNA) [1]; UCEC = Uterine corpus endometrial carcinoma (N = 546), same cutoff","C (>=5% of tumors above the cutoff, but <20%)"
same,Expression score BRCA,source genes (mRNA) [2]; BRCA tumors vs panel of normal tissues,+
same,Expression score AML,source genes (mRNA) [2]; acute myeloid leukemia (N = 11) vs panel of normal tissues,+
same,Expression score CRC,source genes (mRNA) [2]; colorectal cancer (N = 20) vs panel of normal tissues,+
same,Expression score OSCAR,source genes (mRNA) [2]; esophageal cancer incl. gastric-esophageal junction (N = 11) vs panel of normal tissues,+
same,Expression score GBC_CCC,source genes (mRNA) [2]; gallbladder adenocarcinoma and cholangiocarcinoma (N = 3) vs panel of normal tissues,+
same,Expression score GB,source genes (mRNA) [2]; glioblastoma (N = 24) vs panel of normal tissues,+
same,Expression score NHL,source genes (mRNA) [2]; non-Hodgkin lymphoma (N = 10) vs panel of normal tissues,+
same,Expression score NSCLC,source genes (mRNA) [2]; non-small cell lung cancer (N = 11) vs panel of normal tissues,++
same,Expression score OC,source genes (mRNA) [2]; ovarian cancer (N = 12) vs panel of normal tissues,++
same,Expression score PC,source genes (mRNA) [2]; pancreatic cancer (N = 26) vs panel of normal tissues,+
same,Expression score SCLC,source genes (mRNA) [2]; small cell lung cancer (N = 10) vs panel of normal tissues,++
same,Expression score UBC,source genes (mRNA) [2]; urinary bladder cancer (N = 10) vs panel of normal tissues,+
146: peptide found in RORC (gene looked up) (ALHFSEDEI; listed as Homo sapiens) [compound 146],Presentation score PCA,"HLA-A*02; HLA-A*02 peptides, prostate cancer and benign prostate hyperplasia (N = 39) vs panel of normal tissues (N = 262)",+++
same,Presentation score UEC,"HLA-A*02; HLA-A*02 peptides, uterine cancer (N = 15) vs panel of normal tissues (N = 262)",+
same,Peptide Presentation on cancer entities,HLA-A*02; [3],"PCA, UEC"
same,"Over-expression category of source gene (target coverage), BRCA",source genes (mRNA) [1],"C (>=5% of tumors above the cutoff, but <20%)"
same,"Over-expression category of source gene (target coverage), KICH",source genes (mRNA) [1]; same cutoff,"B (>= 20% of tumors above the cutoff, but <50%)"
same,"Over-expression category of source gene (target coverage), KIRC",source genes (mRNA) [1]; same cutoff,"C (>=5% of tumors above the cutoff, but <20%)"
same,"Over-expression category of source gene (target coverage), LIHC","source genes (mRNA) [1]; LIHC = Liver hepatocellular carcinoma (N = 374), same cutoff","B (>= 20% of tumors above the cutoff, but <50%)"
same,"Over-expression category of source gene (target coverage), LUAD",source genes (mRNA) [1]; same cutoff,"C (>=5% of tumors above the cutoff, but <20%)"
same,"Over-expression category of source gene (target coverage), PRAD",source genes (mRNA) [1]; same cutoff,"B (>= 20% of tumors above the cutoff, but <50%)"
same,Expression score HCC,source genes (mRNA) [2]; hepatocellular carcinoma (N = 15) vs panel of normal tissues,+
